These are yes or no findings as the source states them, for the method shown. In cells and extracts the contact can be indirect. Some entries that bind do so weakly or less than the wild type. For some assays here: Where a sequence is shown, tags or fusion partners need not be part of it.
Tests used:
[1] = target: protein kinase R (PKR), endogenous (human (endogenous in HEK293T and A549)) (UniProt P19525)
[2] = target: T1, FLAG-tagged MDA5 (human) (UniProt Q9BYX4); test: co-IP; extracts of HEK293T transfected with flag-tagged MDA5, untreated or treated with micrococcal nuclease (100 units/mL, 30 min, 37°C) before anti-FLAG immunoprecipitation; blot for PKR
T1 sequence: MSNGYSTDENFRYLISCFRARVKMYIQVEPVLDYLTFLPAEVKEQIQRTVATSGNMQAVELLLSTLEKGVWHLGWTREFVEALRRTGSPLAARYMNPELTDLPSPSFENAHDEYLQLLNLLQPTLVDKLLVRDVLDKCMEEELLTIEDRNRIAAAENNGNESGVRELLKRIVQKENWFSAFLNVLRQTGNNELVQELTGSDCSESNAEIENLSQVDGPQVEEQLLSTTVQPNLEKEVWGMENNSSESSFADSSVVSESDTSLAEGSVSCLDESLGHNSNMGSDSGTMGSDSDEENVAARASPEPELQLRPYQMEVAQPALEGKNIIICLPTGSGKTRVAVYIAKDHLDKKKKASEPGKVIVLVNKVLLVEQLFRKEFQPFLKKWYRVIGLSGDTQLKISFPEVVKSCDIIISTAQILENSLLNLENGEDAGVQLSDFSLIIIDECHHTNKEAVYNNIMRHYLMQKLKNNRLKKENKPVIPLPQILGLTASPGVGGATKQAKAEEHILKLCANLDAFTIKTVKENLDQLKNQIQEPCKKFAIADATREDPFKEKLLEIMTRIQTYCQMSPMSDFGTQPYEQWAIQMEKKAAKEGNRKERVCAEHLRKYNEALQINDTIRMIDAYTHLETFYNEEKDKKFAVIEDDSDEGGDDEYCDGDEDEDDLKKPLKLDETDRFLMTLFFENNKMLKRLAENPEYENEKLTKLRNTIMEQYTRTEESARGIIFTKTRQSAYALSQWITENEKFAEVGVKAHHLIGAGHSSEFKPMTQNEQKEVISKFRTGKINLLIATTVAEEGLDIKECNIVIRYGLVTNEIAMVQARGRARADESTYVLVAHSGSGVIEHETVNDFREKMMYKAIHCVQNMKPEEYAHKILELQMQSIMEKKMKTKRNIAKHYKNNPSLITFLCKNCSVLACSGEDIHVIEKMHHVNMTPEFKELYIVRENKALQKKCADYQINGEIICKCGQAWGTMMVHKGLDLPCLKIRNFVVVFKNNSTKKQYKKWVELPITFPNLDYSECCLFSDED

Sequences of proteins named here, by UniProt entry; tags and fusion partners are left off.
UniProt P19525: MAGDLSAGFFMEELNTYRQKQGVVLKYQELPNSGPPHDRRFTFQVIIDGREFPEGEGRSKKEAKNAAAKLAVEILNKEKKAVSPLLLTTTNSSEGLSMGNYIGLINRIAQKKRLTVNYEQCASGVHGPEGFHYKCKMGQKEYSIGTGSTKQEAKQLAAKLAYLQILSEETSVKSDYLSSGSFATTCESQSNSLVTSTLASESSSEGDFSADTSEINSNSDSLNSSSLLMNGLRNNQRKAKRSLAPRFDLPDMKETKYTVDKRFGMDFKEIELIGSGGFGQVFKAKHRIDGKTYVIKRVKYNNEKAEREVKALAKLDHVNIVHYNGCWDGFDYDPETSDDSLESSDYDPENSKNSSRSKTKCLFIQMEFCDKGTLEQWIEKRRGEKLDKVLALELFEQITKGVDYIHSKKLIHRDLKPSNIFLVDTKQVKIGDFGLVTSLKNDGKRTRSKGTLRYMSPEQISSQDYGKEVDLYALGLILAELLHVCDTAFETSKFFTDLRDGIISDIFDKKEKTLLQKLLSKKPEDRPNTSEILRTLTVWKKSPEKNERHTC
UniProt Q16539: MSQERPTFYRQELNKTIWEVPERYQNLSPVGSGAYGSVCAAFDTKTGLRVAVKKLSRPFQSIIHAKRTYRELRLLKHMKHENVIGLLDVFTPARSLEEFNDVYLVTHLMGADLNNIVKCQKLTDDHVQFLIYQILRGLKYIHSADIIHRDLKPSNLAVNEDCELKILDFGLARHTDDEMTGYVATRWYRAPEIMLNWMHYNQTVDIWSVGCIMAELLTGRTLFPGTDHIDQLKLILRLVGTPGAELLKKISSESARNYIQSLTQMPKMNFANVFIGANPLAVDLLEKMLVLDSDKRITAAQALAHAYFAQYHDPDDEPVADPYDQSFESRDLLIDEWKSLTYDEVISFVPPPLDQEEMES

Substance: p38 MAPK, endogenous (from UniProt Q16539 1-360) (enzyme)
- binding [1]: no binding

Substance: protein kinase R (PKR), endogenous (from UniProt P19525 1-551) (enzyme)
- binding [2]: binds
